Data on two compounds can be found in patent US20030170173A1, “Contrast agents” (priority 2000, published 2003).

This data set is described as follows: Metabolic experiments/relaxometry: Gd-chelates incubated with homogenized liver, T1-relaxation time measured. The data set is classed as in vitro ADME, cattle. The conditions noted are these: 37° C.; for T1-relaxation time: Gd-chelate 2 mM in saline, 20 MHz; for Change of T1-relaxation time (contrast efficacy) with incubation time: 1, 10 or 50% liver homogenate, 0 to 60 h.

Setting [1] is: 1% liver homogenate, incubation time 0 h.
The mark [2] stands for this setting: 1% liver homogenate, incubation time 1 h.
Where [3] appears, read: 1% liver homogenate, incubation time 24 h.
[4] abbreviates: 1% liver homogenate, incubation time 36 h.
The mark [5] stands for this setting: 1% liver homogenate, incubation time 60 h.
[6] abbreviates: 10% liver homogenate, incubation time 0 h.
Where [7] appears, read: 10% liver homogenate, incubation time 1 h.
Where [8] appears, read: 10% liver homogenate, incubation time 24 h.
Where [9] appears, read: 10% liver homogenate, incubation time 36 h.
Setting [10] is: 10% liver homogenate, incubation time 60 h.
Where [11] appears, read: 50% liver homogenate, incubation time 0 h.
Where [12] appears, read: 50% liver homogenate, incubation time 1 h.
Setting [13] is: 50% liver homogenate, incubation time 24 h.
The mark [14] stands for this setting: 50% liver homogenate, incubation time 36 h.
The mark [15] stands for this setting: 50% liver homogenate, incubation time 60 h.

Each structure is given as a SMILES string.

Consider `Cc1ccc(NC(=O)N2CCN(CC(=O)O)CCN(CC(=O)O)CCN(CC(=O)O)CC2)cc1.[Gd]` [Gd-chelate 4b, Gadolinium 1,4,7-tris(carboxymethyl)-10-(p-tolyl)carbamoyl-1,4,7,10-tetraazacyclododecane], for which the “Change of T1-relaxation time (contrast efficacy) with incubation time” value is reported as “increased exponentially”. Further, under setting [1], the T1-relaxation time was found to be 128 ms. Under setting [2], this compound came in with a T1-relaxation time of 130 ms. Also, under setting [3], the T1-relaxation time stood at 134 ms. Under setting [4], this compound had a T1-relaxation time of 135 ms. For the same compound, the T1-relaxation time under setting [5] is 137 ms. Moreover, the T1-relaxation time under setting [6] came to 103 ms. Besides, under setting [7], the T1-relaxation time came out at 108 ms. Moreover, the T1-relaxation time under setting [8] was 165 ms. Besides, the T1-relaxation time under setting [9] was 157 ms. Besides, the T1-relaxation time under setting [10] was 179 ms. This compound showed a T1-relaxation time under setting [11] of 120 ms. Moreover, the T1-relaxation time under setting [12] is 125 ms. Under setting [13], the T1-relaxation time was 193 ms. Further, the T1-relaxation time under setting [14] was found to be 200 ms. Under setting [15], this compound showed a T1-relaxation time of 215 ms.

`O=C(O)CN1CCN(CC(=O)O)CCN(C(=O)NCc2ccccc2)CCN(CC(=O)O)CC1.[Gd]` [Gd-chelate 4a, Gadolinium 1,4,7-tris(carboxymethyl)-10-(benzyl)carbamoyl-1,4,7,10-tetraazacyclododecane]: the “Change of T1-relaxation time (contrast efficacy) with incubation time” value was “increased exponentially”. The compound also came in with a T1-relaxation time under setting [1] of 136 ms. This compound also yielded a T1-relaxation time under setting [2] of 137 ms. Moreover, the T1-relaxation time under setting [3] is recorded as 142 ms. In addition, the T1-relaxation time under setting [4] came out at 144 ms. For the same compound, the T1-relaxation time under setting [5] is reported as 145 ms. For the same compound, the T1-relaxation time under setting [6] worked out at 125 ms. The T1-relaxation time under setting [7] is listed as 132 ms. Besides, the T1-relaxation time under setting [8] is listed as 175 ms. The T1-relaxation time under setting [9] was 182 ms. Also, under setting [10], the T1-relaxation time is 184 ms. For the same compound, under setting [11], the T1-relaxation time was found to be 129 ms. Under setting [12], this compound showed a T1-relaxation time of 132 ms. This compound also gave a T1-relaxation time under setting [13] of 158 ms. The compound further yielded a T1-relaxation time under setting [14] of 165 ms. The T1-relaxation time under setting [15] is on record as 175 ms.
